{
  "source": "the supplement of paper PMC6331611",
  "note": "± gives the standard deviation of the averaged measurements. Over roughly 1,600 compounds, “normalized growth (OD600, IQM-normalized) in LPM” has its median near 1; the lowest 2% begin near 0.014. Some of the results follow.",
  "data": [
    {"test_system": "Salmonella enterica serovar Typhimurium SL1344", "experiment": "normalized growth (OD600, IQM-normalized) in LPM (fraction of plate interquartile mean); higher = more bacterial growth (less inhibition)", "settings": "LPM pH 5.8; 10 µM; 16 h", "values": [
      {"smiles": "CCOc1cc(CC(=O)N[C@@H](CC(C)C)c2ccccc2N2CCCCC2)ccc1C(=O)O", "normalized growth": "1.02 ± 0.044"},
      {"smiles": "C#C[C@]1(O)CC[C@H]2[C@@H]3CCc4cc(O)ccc4[C@H]3CC[C@@]21C", "normalized growth": "1.3 ± 0.13"},
      {"smiles": "CC(C)NCC(O)c1ccc(O)c(O)c1", "note": "(centres undefined)", "normalized growth": "0.911 ± 0.013"},
      {"smiles": "COc1ccc2[nH]c([S@@+]([O-])Cc3ncc(C)c(OC)c3C)nc2c1", "normalized growth": "1.05 ± 0.017"},
      {"smiles": "CCCCCN(CCCCC)C(=O)C(CCC(=O)O)NC(=O)c1ccc(Cl)c(Cl)c1", "note": "(centres undefined)", "normalized growth": "1.03 ± 0.015"},
      {"smiles": "Nc1nc2c(ncn2COCCO)c(=O)[nH]1", "normalized growth": "1.02 ± 0.032"},
      {"smiles": "COc1ccc(C(=O)CC(=O)c2ccc(C(C)(C)C)cc2)cc1", "normalized growth": "0.851 ± 0.1"},
      {"smiles": "COc1ccc(C(=O)c2ccccc2)c(O)c1", "normalized growth": "0.932 ± 0.015"},
      {"smiles": "COc1c(N2C[C@@H]3CCCN[C@@H]3C2)c(F)cc2c(=O)c(C(=O)O)cn(C3CC3)c12", "normalized growth": "0.0131 ± 0.0045"},
      {"smiles": "COc1ncnc(NS(=O)(=O)c2ccc(N)cc2)c1OC", "normalized growth": "1.02 ± 0.13"},
      {"smiles": "CC(=O)OCC(=O)[C@@]1(O)[C@H](C)C[C@H]2[C@@H]3CCC4=CC(=O)C=C[C@]4(C)[C@@]3(F)[C@@H](O)C[C@@]21C", "normalized growth": "0.985 ± 0.081"},
      {"smiles": "CCN(CC)CCOc1ccc2c(c1)C(=O)c1cc(OCCN(CC)CC)ccc1-2", "normalized growth": "1.02 ± 0.083"},
      {"smiles": "CC1(C)O[C@@H]2C[C@H]3[C@@H]4CCC5=CC(=O)C=C[C@]5(C)[C@H]4[C@@H](O)C[C@]3(C)[C@]2(C(=O)CO)O1", "normalized growth": "0.945 ± 0.056"},
      {"smiles": "O=C(CCCCCCC(=O)Nc1ccccc1)NO", "normalized growth": "1.21 ± 0.3"},
      {"smiles": "CC[C@H]1OC(=O)C[C@@H](O)[C@H](C)[C@@H](O[C@@H]2O[C@H](C)[C@@H](O[C@H]3C[C@@](C)(O)[C@@H](O)[C@H](C)O3)[C@H](N(C)C)[C@H]2O)[C@@H](CC=O)C[C@@H](C)C(=O)/C=C/C(C)=C/[C@@H]1CO[C@@H]1O[C@H](C)[C@@H](O)[C@@H](OC)[C@H]1OC", "normalized growth": "1.07 ± 0.032"},
      {"smiles": "CCCCC(CC)COC(=O)C(C#N)=C(c1ccccc1)c1ccccc1", "note": "(centres undefined)", "normalized growth": "0.82 ± 0.0086"},
      {"smiles": "Nc1c2c(nc3ccccc13)CCCC2", "normalized growth": "0.962 ± 0.022"},
      {"smiles": "C/C(=C(\\CCOP(=O)(O)O)SC(=O)c1ccccc1)N(C=O)Cc1cnc(C)nc1N", "normalized growth": "1.1 ± 0.045"},
      {"smiles": "CN(Cc1cnc2nc(N)nc(N)c2n1)c1ccc(C(=O)NC(CCC(=O)O)C(=O)O)cc1", "note": "(racemic)", "normalized growth": "0.665 ± 0.054"},
      {"smiles": "C=C[C@@]1(C)CC(=O)[C@]2(O)[C@@]3(C)[C@@H](O)CCC(C)(C)[C@@H]3[C@H](O)[C@H](OC(C)=O)[C@@]2(C)O1", "normalized growth": "1.07 ± 0.019"},
      {"smiles": "CC1(C)S[C@@H]2[C@H](NC(=O)C(C(=O)O)c3ccccc3)C(=O)N2[C@H]1C(=O)O", "note": "(some centres undefined)", "normalized growth": "1.07 ± 0.036"},
      {"smiles": "CCN(CC)CCOC(=O)C(Cc1cccc2ccccc12)CC1CCCO1", "note": "(centres undefined)", "normalized growth": "0.989 ± 0.099"},
      {"smiles": "C[C@H](N)[C@H](O)c1cccc(O)c1", "normalized growth": "0.787 ± 0.045"},
      {"smiles": "O=C1CN(/N=C/c2ccc([N+](=O)[O-])o2)C(=O)N1", "normalized growth": "1.04 ± 0.024"}
    ]}
  ]
}
